Consider three sequences from paper PMC10028186.

Protein sequences, listed by entry. Tags and fused reporters are not part of them. Lines headed by an entry give the natural chain unless they say otherwise; changes in a name come on top.
UniProt A0QWS8: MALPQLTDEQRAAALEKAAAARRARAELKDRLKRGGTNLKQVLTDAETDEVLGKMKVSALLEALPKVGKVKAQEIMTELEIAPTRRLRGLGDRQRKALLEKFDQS

pKd: −log10 of the molar value. The exact form of at least one protein or probe is not confirmed.

In data set [1] the target is Strep-msIHF (mycobacterial integration host factor) (Mycobacterium smegmatis mc2 155) (UniProt A0QWS8). Nature of the data set: BLI. The note with it: BLI: PBS with 50 mM Tris-HCl pH 7.5, 150 mM NaCl, 0.1 mg/ml BSA, 0.05% Tween-20, 30 C; recombinant protein; residues 1-105; protein details: N-terminal Strep tag (pET28N-Strep); probe letters rebuilt from the primers and the genome; part of a longer molecule.

Data set [2] shares this target. As to the kind of experiment: EMSA. The settings on record: 10 mM Mg acetate, 25 ng poly(dI-dC), EMSA: 50 mM Tris-HCl pH 8, 150 mM NaCl, 0.02% Tween-20, 5% glycerol, 1 mg/ml BSA, 50 fmol DNA in 20 ul, 20 C, recombinant protein, residues 1-105, protein details: N-terminal Strep tag (pET28N-Strep), probe letters rebuilt from the primers and the genome, part of a longer molecule. A general note: Mobility shift assays separate free from complexed probe on a gel.

The term pKd denotes the negative decadic logarithm of the Kd, by convention in mol/L. “CTGCTGTGCTGTTCGGCTGCACGTAGGCGGCGAGCATCTCCAGCGCGAGCTGTGTCGGCGAGGCTTTCCACTGGTTGGCGGCCAGGACGTTGACCGGGTGCGCGGCCTCGGCCAGTGCTGCGCCGGCGGGGTCGCGGACGACGACGCGGATGTCGGCGGGGCGCTGCTCGTCGACGGTGAGCATGGAGGCGGGGTCGAGTTTGAGGTCGACGTCGCGCAGTGTGGTCGGCCGGCCGGGCGACAGGTCGGCGTGGACTTCGCGCGGACCGCCGTGGGAGCCTTCGGCAC (double strand) [high-GC fragment]”: the pKd in data set [1] is 6.57. Moreover, in data set [2], the binding result is reported as “binds”.

Take “GCAACGAAAAAGGGACCGCACGTGGCGGTCCCTACCGAGCGGGCGACGGGAATCGAACCCGCGTAGCTAGTTTGGAAGACTAGGGCTCTACCATTGAGCTACGCCCGCATGTCAGCACCAGCACTGTACCGGGGAGCTGAAACCAAATCCAATTAAGGGTCTCGTGTCGTGAGCACGTAGTATCTCGCGTGGCCCTTTCGCGGTTTCTCGGCCTGCGGATGGACCACCACGGGGTGTAGCGCAGCTTGGTAGCGCATCCGCTTTGGGAGCGGAAGGCCGCAGGTTCAAA (double strand) [attB fragment]”: the negative-log Kd (pKd) in data set [1] was 6.60. In addition, the binding result in data set [2] was “binds”.

On to “TTGCCCAGCATCCTCGGTGTGTCGCGGTGTGAGTGGTGTGTGGAGAGCGGTTGATGAACTCCGCCGGCACTGTGGATCGTCGCGCAGGTGTGGAGAGATTCCGTAGTCATCCTGTGGTTTGCGCGCAGGTTCTGCACATCGGTATCCACAGCCGCCGAGCGTGACGGCAGGCACGCGTGTGACAGAAGTTGCTCACAAAAAATTTCGGTCAGGCGTCGTCGAAACCGGGTCGGAACGGGTCCGTAGACGACGGATGCCCGGGGGACTCCCGGGGCATCCGTGTGGGCTGAGTCTCCGAGC (double strand) [oriC fragment]”, for which the pKd in data set [1] was 6.57. In addition, the binding result in data set [2] was “binds”.
